Data from patent US20240400722A1, “Chemically Inducible Heterodimerizing System and A Method For Generation Thereof” (Miltenyi Biotec B.V. & Co. KG, priority 2023, published 2024).

Test: Full-length display of acVHH variants on yeast surface
Design: species or system S. cerevisiae
Settings: anti-c-myc staining; compared with acVHH-WT

Molecule	full length display on yeast
acVHH-M1 (protein, left off: large carriers; small tags and cut ends) QVQLVESGGGLVQAGGSLRLSCTASGRTGTIYSMAWFRQAPGKEREFLAPVALGLQSTYYMDSVKGRFTISRDKGKNTVYLQMDSLKPEDTAVYYCTATRAYSVGYDYWGQGTQVTVSS	well-expressed
acVHH-M2 (protein, left off: large carriers; small tags and cut ends) QVQLVESGGGLVQAGGSLRLSCTASGRTGTIYSMAWFRQAPGKEREFLAQQRWLFRRTYYMDSVKGRFTISRDKGKNTVYLQMDSLKPEDTAVYYCTATRAYSVGYDYWGQGTQVTVSS	well-expressed
